Test results published in the supplement of paper PMC10338343.
± gives the standard deviation. The entries are a selection whose mix differs from that of the whole data set. The uncertainty is large for many entries.

Experiments:
[1] = tested on: MILI (PIWIL2) piRISC loaded with piRNA #1 (26 nt); assay: pre-steady-state target cleavage rate (min^-1); higher = faster piRNA-guided slicing of the target; conditions: guide: piRNA #1 5'p-UGAGGUAGUAGGUUGUAUAGUAUCCA; auxiliary factor: 500 nM mouse GTSF1;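 also: 1 nM active piRISC with 0.1 nM target library at 33 °C single turnover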
Procedure, shortened: (§1)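 Three pooled Cleave-'n-Seq trials supplied the data, with k3 capped at 0.0001 min^-1. In each, […] transcribed, DNA-blocked target RNA library and 1 nM active affinity-purified piRISC with one synthetic guide reacted in HEPES–potassium acetate buffer at 33 °C for 0–8 or 0–960 min, with or without 500 nM GTSF1 partner protein. Uncleaved targets were sequenced and normalised to depth and to weakly complementary targets. A burst-and-steady-state fit provided the pre-steady-state cleavage rate.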

[2] = tested on: EfPiwi piRISC loaded with piRNA #1 (26 nt); assay: pre-steady-state target cleavage rate (min^-1); guide: piRNA #1 5'p-UGAGGUAGUAGGUUGUAUAGUAUCCA; MIWI and MILI are mouse PIWI proteins and EfPiwi is from a freshwater sponge; tags in brackets are library labels; higher = faster piRNA-guided slicing of the target; conditions: auxiliary factor: 500 nM Ephydatia muelleri Gtsf1
Procedure, shortened: as §1

Sequence	pre-steady-state target cleavage rate [1]	pre-steady-state target cleavage rate [2]
GGAGACCUAUCUCAUACAACCUACUACCUCA	0.0664 ± 0.01	0.00258 ± 0.0049
GGAGACCUAUGAAAAGAACCUACUACCUCA	0.00114 ± 0.0039	0.000666 ± 0.011
GGAGACGAUACCAUACAACCUACUACCUCA	0.236 ± 0.027	0.124 ± 0.045
